From paper PMC8514338
No constants are given. Whether binding was seen depends on the method and setting. Some results given as binding are weak or reduced against the parent protein; the word gives no strength.

Amino acid sequences for entries named in this document (tags omitted). A change or cut given only in a name is not applied to a line headed by its entry.
UniProt Q03468: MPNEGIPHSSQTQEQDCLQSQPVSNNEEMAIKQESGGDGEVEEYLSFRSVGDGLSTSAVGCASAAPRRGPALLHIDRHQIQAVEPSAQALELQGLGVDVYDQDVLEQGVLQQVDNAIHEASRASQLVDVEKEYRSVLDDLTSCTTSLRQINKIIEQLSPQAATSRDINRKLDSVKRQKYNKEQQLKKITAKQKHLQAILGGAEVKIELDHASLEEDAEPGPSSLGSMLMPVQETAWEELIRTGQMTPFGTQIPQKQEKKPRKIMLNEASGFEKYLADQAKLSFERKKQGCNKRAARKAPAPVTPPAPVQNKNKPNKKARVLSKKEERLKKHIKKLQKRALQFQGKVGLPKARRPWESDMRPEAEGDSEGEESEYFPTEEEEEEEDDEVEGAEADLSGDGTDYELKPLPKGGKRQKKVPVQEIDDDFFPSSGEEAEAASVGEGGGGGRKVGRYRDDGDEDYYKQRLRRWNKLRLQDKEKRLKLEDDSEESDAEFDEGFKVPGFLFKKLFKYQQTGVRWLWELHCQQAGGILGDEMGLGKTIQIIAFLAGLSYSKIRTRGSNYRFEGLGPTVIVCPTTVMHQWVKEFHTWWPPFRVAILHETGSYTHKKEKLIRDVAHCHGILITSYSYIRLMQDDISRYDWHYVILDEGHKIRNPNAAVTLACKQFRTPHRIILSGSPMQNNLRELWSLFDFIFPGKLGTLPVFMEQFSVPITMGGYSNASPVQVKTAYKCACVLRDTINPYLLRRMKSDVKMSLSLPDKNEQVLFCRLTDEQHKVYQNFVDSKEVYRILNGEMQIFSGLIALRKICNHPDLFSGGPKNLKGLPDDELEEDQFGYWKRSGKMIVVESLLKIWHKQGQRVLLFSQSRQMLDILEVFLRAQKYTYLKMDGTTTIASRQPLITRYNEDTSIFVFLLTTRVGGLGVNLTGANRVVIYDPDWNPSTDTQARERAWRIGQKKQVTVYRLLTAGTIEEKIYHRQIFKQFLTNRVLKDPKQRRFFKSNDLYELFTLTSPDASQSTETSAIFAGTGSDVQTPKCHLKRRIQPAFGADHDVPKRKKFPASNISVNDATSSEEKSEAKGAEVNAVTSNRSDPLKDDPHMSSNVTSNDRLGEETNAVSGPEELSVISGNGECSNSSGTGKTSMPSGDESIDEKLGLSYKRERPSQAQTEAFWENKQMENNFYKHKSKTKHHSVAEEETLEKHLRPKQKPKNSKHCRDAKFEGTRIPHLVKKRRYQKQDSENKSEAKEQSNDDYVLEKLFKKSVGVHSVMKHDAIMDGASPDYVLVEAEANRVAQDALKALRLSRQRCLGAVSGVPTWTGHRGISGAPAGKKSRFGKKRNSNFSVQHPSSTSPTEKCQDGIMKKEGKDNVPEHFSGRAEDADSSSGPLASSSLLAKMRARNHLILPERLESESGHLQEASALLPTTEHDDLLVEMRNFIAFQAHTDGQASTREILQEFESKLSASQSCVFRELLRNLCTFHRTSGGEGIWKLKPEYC
UniProt Q13619: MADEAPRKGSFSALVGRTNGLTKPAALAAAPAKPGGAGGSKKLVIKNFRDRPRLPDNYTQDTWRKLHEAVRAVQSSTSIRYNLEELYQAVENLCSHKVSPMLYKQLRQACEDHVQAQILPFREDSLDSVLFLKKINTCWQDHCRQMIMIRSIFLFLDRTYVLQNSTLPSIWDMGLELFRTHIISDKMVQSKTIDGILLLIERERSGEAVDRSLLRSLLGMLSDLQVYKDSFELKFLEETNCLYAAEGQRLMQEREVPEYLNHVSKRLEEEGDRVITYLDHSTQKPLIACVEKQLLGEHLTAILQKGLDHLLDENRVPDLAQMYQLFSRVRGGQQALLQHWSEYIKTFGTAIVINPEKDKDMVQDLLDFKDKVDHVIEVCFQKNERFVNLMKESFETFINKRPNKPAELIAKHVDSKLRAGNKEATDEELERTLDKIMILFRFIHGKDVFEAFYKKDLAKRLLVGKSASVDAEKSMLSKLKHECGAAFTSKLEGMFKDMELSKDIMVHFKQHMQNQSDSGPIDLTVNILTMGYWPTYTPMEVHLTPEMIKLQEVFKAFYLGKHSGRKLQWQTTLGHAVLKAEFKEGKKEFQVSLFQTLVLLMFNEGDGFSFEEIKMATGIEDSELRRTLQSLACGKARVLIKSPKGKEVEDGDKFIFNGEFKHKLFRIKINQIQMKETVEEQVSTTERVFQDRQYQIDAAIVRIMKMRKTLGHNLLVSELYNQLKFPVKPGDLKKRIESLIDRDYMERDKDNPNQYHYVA

Target: CSB ATPase-deficient mutant (CSB K538R) (human) (UniProt Q03468)
Assay: cryo-EM structure; structures 4 and 5: Pol II–CSB–CRL4^CSA–UVSSA–SPT6–PAF complex; two conformations of CUL4A–RBX1 (state 1, state 2) from focused 3D classification of one sample; both purified

binding: binds
Substance: cullin-4A (CUL4A) (from UniProt Q13619 1-759)
